Reference: publication PMC7819943, “Rice protein-binding microarrays: a tool to detect cis-acting elements near promoter regions in rice”
Some of the results follow.

The chains behind the UniProt entries cited, without tags or fusion partners.
UniProt Q0JBA9, entry or part of it: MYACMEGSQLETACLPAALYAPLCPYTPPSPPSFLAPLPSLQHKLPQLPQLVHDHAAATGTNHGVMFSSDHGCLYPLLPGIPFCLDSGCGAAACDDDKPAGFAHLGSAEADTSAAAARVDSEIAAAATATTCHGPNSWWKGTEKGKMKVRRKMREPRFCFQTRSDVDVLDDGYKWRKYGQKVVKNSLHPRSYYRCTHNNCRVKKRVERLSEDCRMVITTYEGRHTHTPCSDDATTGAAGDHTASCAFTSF

Molecular target: OsWRKY34 (Oryza sativa, UniProt Q0JBA9 1-250)
Assay: protein-binding microarray (RPBM); PBS, 2% BSA, 51.3 ng/ul salmon testes DNA, 50 uM zinc acetate, 200 nM TF, 25 C, 1 h; high values mean tight binding
Conditions: protein: recombinant; tags: N-terminal polyhistidine and DsRed monomer fusion (pET32a); label: CyDye5-dUTP incorporated in the synthesized complementary strand; 3' TTTTT single-stranded linker to array surface; dsDNA, one strand shown
In short: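 In PBS with 2% BSA, salmon testes DNA and 50 µM zinc acetate, 200 nM protein was incubated on a custom Agilent array at 25 °C for 1 h and then washed off. The array had been made double-stranded by primer extension with Cy5-dUTP and blocked with 2% BSA. The proteins were transcription factors fused N-terminally to polyhistidine and DsRed, expressed in E. coli BL21-CodonPlus and purified on Ni–NTA. The binding signal is per-feature fluorescence intensity (arbitrary units) from an Axon 4000B scanner.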

Sequence | binding signal
CCAGGTGATTCGTGTTTCTTTATGTTTTACATATTTCTTGCGGAGTCACCTAGTGCAG | 8420 fluorescence intensity (a.u.)
GCCGTTGACTTTTTCTCACATATTTGACCATTCGTCTTATCGGAGTCACCTAGTGCAG | 45300 fluorescence intensity (a.u.)
CGGCCTCCGATGGCGCCCCGGCCATACTGCCCCGTGACCCCGGAGTCACCTAGTGCAG | 8210 fluorescence intensity (a.u.)
ACTTTCTTACGTAAACCTTTTTTAAAAAAACACACCAGTTCGGAGTCACCTAGTGCAG | 11100 fluorescence intensity (a.u.)
GGGTCTCTGTCCAGTCCAGTCCACTTCCGGCCCATTTGCTCGGAGTCACCTAGTGCAG | 9500 fluorescence intensity (a.u.)
ACGGTAGTAGTTAGGATTTTCTTTTTTTCGTGAGATTTTTCGGAGTCACCTAGTGCAG | 8110 fluorescence intensity (a.u.)
ATTTAGGGACGGGGAGTATATGCCAAGTACTTTTAGATATCGGAGTCACCTAGTGCAG | 11000 fluorescence intensity (a.u.)
AAATCAAATTCTCATATTAATTTCACCGTCAATTCTCTCGCGGAGTCACCTAGTGCAG | 9030 fluorescence intensity (a.u.)
AAAATATCAGATTAATCCATTTTTCAAGTTTGTAGTAATTCGGAGTCACCTAGTGCAG | 8360 fluorescence intensity (a.u.)
TCTCCGTTCTCATCAGGCTTTAGCCACACTGCTTCAATATCGGAGTCACCTAGTGCAG | 9660 fluorescence intensity (a.u.)
CTCCGGCCAATCACCGCCGCTGTCGTTGCGTTCGCCGGCGCGGAGTCACCTAGTGCAG | 9630 fluorescence intensity (a.u.)
AAAGTGAACAGGCCCCTAGCGTAGATGTCGGGTGGGATGGCGGAGTCACCTAGTGCAG | 8590 fluorescence intensity (a.u.)
TCGTAGGGTGCGGGGTGGCTGCCTGTCTCCTTCGCCTCGCCGGAGTCACCTAGTGCAG | 9680 fluorescence intensity (a.u.)
AACTTGAAATAAGTTTCAGTGTGTCTATTTTTGTTTTTTACGGAGTCACCTAGTGCAG | 8090 fluorescence intensity (a.u.)
TCTCTCCACCCTTGCCCACCTGAACCCGCGTCCATACGCCCGGAGTCACCTAGTGCAG | 8230 fluorescence intensity (a.u.)
GCGGCAGGGTCTATTTTTGTAATTTTTTTTGGCCGATAGACGGAGTCACCTAGTGCAG | 8620 fluorescence intensity (a.u.)
AATCCCTTCAATACCCCTGAATTTGACATCACCCCTTATACGGAGTCACCTAGTGCAG | 9940 fluorescence intensity (a.u.)
GTAGAGTGGTGGTGGGGTGTGCAAGCAATCCGGGTGGATTCGGAGTCACCTAGTGCAG | 9110 fluorescence intensity (a.u.)
TTCTTCTTCATCCAGCTGCATGCCACGGACTGCAATCTATCGGAGTCACCTAGTGCAG | 8880 fluorescence intensity (a.u.)
GTTGCTCCGTTGCATTTTTATGAGAGTTACTGATCGAACACGGAGTCACCTAGTGCAG | 11100 fluorescence intensity (a.u.)
CTGACCCGCCCCGCCTCCTTCTCTCGCCGCGCTCTCGTTACGGAGTCACCTAGTGCAG | 11100 fluorescence intensity (a.u.)

Sequence | binding signal
CATGTTTAAAAAAGTCAACGGTGACAAACATTTAGGGAAGCGGAGTCACCTAGTGCAG | 12300 fluorescence intensity (a.u.)
TGATTGATGCTACCTTTAGTCTTTAGACCCTAATTATCCTCGGAGTCACCTAGTGCAG | 8130 fluorescence intensity (a.u.)
TCTTCCTCGTTCTTCTTCTTCTTCTAGTATCCGTGCATAACGGAGTCACCTAGTGCAG | 12000 fluorescence intensity (a.u.)
CATATCCGTTTTTGCTCGGGTGGGCTGGGTTAGGGACTCACGGAGTCACCTAGTGCAG | 19000 fluorescence intensity (a.u.)
CTTTTTTTGGTTTTTTGCCTGTAATAGTATACGGGTATACCGGAGTCACCTAGTGCAG | 8540 fluorescence intensity (a.u.)
ACTCTCTCCGTATTCGTATTTTAATGTATGACGCCGTTGACGGAGTCACCTAGTGCAG | 8550 fluorescence intensity (a.u.)
GGTGCTCGTTTTCAGTTGGGGTCGATCAAATGTTACCATTCGGAGTCACCTAGTGCAG | 8400 fluorescence intensity (a.u.)
TATTTACTTTCCTATTTTTTTTACAATATTGTACATACAACGGAGTCACCTAGTGCAG | 8870 fluorescence intensity (a.u.)
GCTCCATGCTGGTTCCTGTATAATTTTGGCCCCTGGCTAACGGAGTCACCTAGTGCAG | 9900 fluorescence intensity (a.u.)
TATTCTATTGAATTGTTTATTTGTATTCATTTGGCTGCCACGGAGTCACCTAGTGCAG | 9350 fluorescence intensity (a.u.)
TCCCTACTAGGTACCCCTTCAGGTTTCTTGGGTTTTGTTTCGGAGTCACCTAGTGCAG | 9490 fluorescence intensity (a.u.)
TCTTCTACTACCAGAGTGCCTCTTCTCCCGTACTCCGCCACGGAGTCACCTAGTGCAG | 8090 fluorescence intensity (a.u.)
TCTTGTGCAGGGGTTGATTTTTCAGTGTATAGGGGTATGACGGAGTCACCTAGTGCAG | 16800 fluorescence intensity (a.u.)
ATTTCTTTTTGCCCCATTATTATGGTTATTATACCACCTCCGGAGTCACCTAGTGCAG | 10300 fluorescence intensity (a.u.)
CCATTCATACTTTCATAGGACCTTATTTAACCTGGTTCGACGGAGTCACCTAGTGCAG | 8070 fluorescence intensity (a.u.)
CAGCAGTTAAGAGTTCACACCTTTCCCAGGCAACCAAATTCGGAGTCACCTAGTGCAG | 8310 fluorescence intensity (a.u.)
ATCTGTTTTGAGTTGTCTTAATGTCTATTCGTCATTGAAACGGAGTCACCTAGTGCAG | 8510 fluorescence intensity (a.u.)
GATGATTATGTTTTCGCCGACTTATTATTTCACCTTCACGCGGAGTCACCTAGTGCAG | 8460 fluorescence intensity (a.u.)
GTGCTGTGTTCATCTCATGTGTTCATCTCATTGTTTTTGTCGGAGTCACCTAGTGCAG | 8820 fluorescence intensity (a.u.)
CTTTTGTTGTTGTTCTCTGTTGCCCTTTTTGGAGAGCTTGCGGAGTCACCTAGTGCAG | 9400 fluorescence intensity (a.u.)
TTTTCATTGTGTTGTAGCCAACAGCCACATTGTTTTCTTTCGGAGTCACCTAGTGCAG | 8080 fluorescence intensity (a.u.)

Sequence | binding signal
GTATTTCTATATGGACTCTATACTCTACTTCTAATATTCCCGGAGTCACCTAGTGCAG | 8150 fluorescence intensity (a.u.)
ACTTCCACCTTTCTTCTTCTTCTTCTTCTTCGCGGCGACACGGAGTCACCTAGTGCAG | 8260 fluorescence intensity (a.u.)
CGTCACATCGTTCCAATTTCAACCAAACTTCCAATTTTGACGGAGTCACCTAGTGCAG | 8790 fluorescence intensity (a.u.)
ACCCCACACCTTTTCTCCTACCCACCACCCGTCTCCGCAACGGAGTCACCTAGTGCAG | 10500 fluorescence intensity (a.u.)
TATCGATAGCGACAATTAATTTTTTTCTCATCTTGTTTTTCGGAGTCACCTAGTGCAG | 9180 fluorescence intensity (a.u.)
GCGCCTCAGCCTCCGCCTCCGTCTTCCCCTAGCGCCGCCGCGGAGTCACCTAGTGCAG | 8420 fluorescence intensity (a.u.)
TTCCCTAAATGTTTGACACCGTTGACTTTTTTTTAAACATCGGAGTCACCTAGTGCAG | 33300 fluorescence intensity (a.u.)
TGGGCCAAACCACCGCCACGTTGCCATCGCTGATTCGCCGCGGAGTCACCTAGTGCAG | 8820 fluorescence intensity (a.u.)
CCCACTGCATTTGCCCTTTTTCTTGTTAGCGAAATCACTGCGGAGTCACCTAGTGCAG | 10000 fluorescence intensity (a.u.)
TAGTACTATTCACGTCCCATATTACTTGTCGCTTTGACTTCGGAGTCACCTAGTGCAG | 11800 fluorescence intensity (a.u.)
ACAACCCTAGCATGGTCACACACATATGGCATCTACATCTCGGAGTCACCTAGTGCAG | 10600 fluorescence intensity (a.u.)
TGTTTTTTCTGTGTTTTGCAATTCTCTGTTTTACACTTATCGGAGTCACCTAGTGCAG | 13500 fluorescence intensity (a.u.)
ATATATCATATGTTAATACATCTTCTCATTTTTTTTCATACGGAGTCACCTAGTGCAG | 8740 fluorescence intensity (a.u.)
ATCCCTTTTTCTCATTCTTCATCTATCATTTATGTTTTTACGGAGTCACCTAGTGCAG | 9610 fluorescence intensity (a.u.)
CACCACAGCCACACTTCTGATCACTGCTCACTCAGCTAATCGGAGTCACCTAGTGCAG | 10800 fluorescence intensity (a.u.)
ATGTCAAACTTGTCCTCACTTCCCATGGCAGCTTGCTTGACGGAGTCACCTAGTGCAG | 8070 fluorescence intensity (a.u.)
GTATCTGATTCCTGCAATTTTTCATGTTCTTGTGTTTTTACGGAGTCACCTAGTGCAG | 8670 fluorescence intensity (a.u.)
CTATCGATATAATCTCTAAGTGAGTTTTTTGTATTTTTTTCGGAGTCACCTAGTGCAG | 8020 fluorescence intensity (a.u.)
GTGGAGAATCCATCGCTTTTCCGCTTTTCCCGCACCAAATCGGAGTCACCTAGTGCAG | 9930 fluorescence intensity (a.u.)
CGTAATTCCTTCCGCGCTTTCCGAGTTTTTTTTTTCCATTCGGAGTCACCTAGTGCAG | 14400 fluorescence intensity (a.u.)
AACAATCTACGTCTCGTCTCGTCACGGCCCAATCCACGATCGGAGTCACCTAGTGCAG | 9430 fluorescence intensity (a.u.)

Sequence | binding signal
AAACTTTCAACTTTTTTCTCACATCGTTCTAATTTCAACTCGGAGTCACCTAGTGCAG | 8770 fluorescence intensity (a.u.)
CCCGCTCACGCCGCCGCATCCGCCTTCCGCTCGCGCCGCCCGGAGTCACCTAGTGCAG | 9060 fluorescence intensity (a.u.)
ATCTTAAGCCATTCTTGTATAATTAGCATTTGTTTCTTGGCGGAGTCACCTAGTGCAG | 9080 fluorescence intensity (a.u.)
CCTTGTACCGTGGGGCGGAGGGAGTAGTAGAGTTTATTCACGGAGTCACCTAGTGCAG | 9890 fluorescence intensity (a.u.)
CGGTGAATGGTTTGAGTAAGTTTAGGGGTAGACGTTTCTGCGGAGTCACCTAGTGCAG | 8410 fluorescence intensity (a.u.)
GCCCACTAGCCCTGCTCGCTCCGGCTTCCCCGACTCCATGCGGAGTCACCTAGTGCAG | 8530 fluorescence intensity (a.u.)
ATTGGACGACTTAAATACCACTTGTCGTGTCGTTCTCACTCGGAGTCACCTAGTGCAG | 9100 fluorescence intensity (a.u.)
ATTTGTGATGTGGATTTGGGGTGTTACTTTGATTTGGGGACGGAGTCACCTAGTGCAG | 12900 fluorescence intensity (a.u.)
AGTCTAAACTCAAACTTTCTCACTGTTATAAGCTTTTCTTCGGAGTCACCTAGTGCAG | 8920 fluorescence intensity (a.u.)
TTCTCTCACTCTCTCGTGATACTGCAGTAGCCTTTTTCCACGGAGTCACCTAGTGCAG | 8160 fluorescence intensity (a.u.)
GTTTTGGTAGTGGCTGGGAGTACATTTGATTTGAGCCATGCGGAGTCACCTAGTGCAG | 8060 fluorescence intensity (a.u.)
AGCGGTAAATTGTGTTTGTTGTTAATTTGTCTTTAATTCCCGGAGTCACCTAGTGCAG | 8980 fluorescence intensity (a.u.)
GTATATATAGTCATTGACATCACACACACATTACGGTCATCGGAGTCACCTAGTGCAG | 9910 fluorescence intensity (a.u.)
TTCTCTCTCTTTCTCTCTCTCTCGCAATTTTTCCCCATCACGGAGTCACCTAGTGCAG | 8220 fluorescence intensity (a.u.)
ATTCCTTGTTGGTAACTGTACCCAGGGGCGGGTCCAACGTCGGAGTCACCTAGTGCAG | 8270 fluorescence intensity (a.u.)
GAGCCCACTCTTCCCACTTCCCTAGTACTATCACACACACCGGAGTCACCTAGTGCAG | 8850 fluorescence intensity (a.u.)
AGATTGATTGCCGTGTTCATGCGTAGCCACCGTCCCTAAACGGAGTCACCTAGTGCAG | 11600 fluorescence intensity (a.u.)
GTGGTGGGTGCGCGACGTATGGCAGGGGAAATTCAGCTCTCGGAGTCACCTAGTGCAG | 11600 fluorescence intensity (a.u.)
ACGCCTACAATGGTACTGTGTTTTTTTTATGATAGCGGTGCGGAGTCACCTAGTGCAG | 8060 fluorescence intensity (a.u.)
ATTTTGGTACTACTCTATATTTTAGTTTGCAGCTTGTGCTCGGAGTCACCTAGTGCAG | 10600 fluorescence intensity (a.u.)
CTCAGTTCCTGCCTCCGCCGACTGTTTCTTCTTCTTTGAGCGGAGTCACCTAGTGCAG | 9010 fluorescence intensity (a.u.)

Four entries drawn at random from those above:
Sequence | binding signal
ACGCCTACAATGGTACTGTGTTTTTTTTATGATAGCGGTGCGGAGTCACCTAGTGCAG | 8060 fluorescence intensity (a.u.)
AGATTGATTGCCGTGTTCATGCGTAGCCACCGTCCCTAAACGGAGTCACCTAGTGCAG | 11600 fluorescence intensity (a.u.)
CCCGCTCACGCCGCCGCATCCGCCTTCCGCTCGCGCCGCCCGGAGTCACCTAGTGCAG | 9060 fluorescence intensity (a.u.)
GTATATATAGTCATTGACATCACACACACATTACGGTCATCGGAGTCACCTAGTGCAG | 9910 fluorescence intensity (a.u.)
